In PMC4864350 (PLoS ONE, 2016):

experiment: general procedure: Fmoc solid-phase peptide synthesis; Rink amide-functionalised aminomethyl polystyrene (1% DVB, 100–200 mesh, loading 1.2 mmol/g); DIC/Oxyma; conditions: whole synthesis, ELSD

Substance | final purity (method not given)
Asp-Ala-Pro-Asp | 95%
Asp-Ala-Val-Asp | 99%
Asp-Asn-Pro-Asp | 94%
Asp-Asn-Val-Asp | 98%
Asp-Gly-Pro-Asp | 93%
Asp-Gly-Val-Asp | 97%
Asp-Leu-Pro-Asp | 90%
Asp-Leu-Val-Asp | 96%
Asp-Pro-Val-Asp | 93%
Asp-Val-Pro-Asp | 100%
Asp-Val-Val-Asp | 99%
DLPD-Ahx-K(Me) | 100%
